Measured values taken from patent US20250101127A1.
Results are given in words; binding and its absence hold for the method and conditions named. Some results given as binding are weak or reduced against the parent protein; the word gives no strength.

Molecular target: T1, peptide comprising the PAHGVTS sequence (human)
T1 sequence (peptide): PAHGVTS
Experiment: circular peptide array

binding: binds
B1: MP1 monoclonal antibody (antibody, V domains shown)
VH: EVKVDETGGGLVQPGRPMKLSCVVSGITFSDYWMNWVRQSPEKGLEWVAQIRNKPYNYETYYSNSVKGRFTISRDDSKSSVYLQMNNLRAEDMGIYYCTWAMITSDGYAMDYWGQGTSVTVSS
VL: DIVMSQSPSSLAVSVGEKVTLICKSSQSLLLSSNQKNYLAWYQQKPGQSPKLLIYWASTRESGVPDRFTGSGSGTDFTLTINSVKAEDLAVYYCQQCFSYPLTFGAGTKLELK
